Reference: paper PMC7459424

Sequences of proteins named here, by UniProt entry; tags and fusion partners are left off.
UniProt P70191: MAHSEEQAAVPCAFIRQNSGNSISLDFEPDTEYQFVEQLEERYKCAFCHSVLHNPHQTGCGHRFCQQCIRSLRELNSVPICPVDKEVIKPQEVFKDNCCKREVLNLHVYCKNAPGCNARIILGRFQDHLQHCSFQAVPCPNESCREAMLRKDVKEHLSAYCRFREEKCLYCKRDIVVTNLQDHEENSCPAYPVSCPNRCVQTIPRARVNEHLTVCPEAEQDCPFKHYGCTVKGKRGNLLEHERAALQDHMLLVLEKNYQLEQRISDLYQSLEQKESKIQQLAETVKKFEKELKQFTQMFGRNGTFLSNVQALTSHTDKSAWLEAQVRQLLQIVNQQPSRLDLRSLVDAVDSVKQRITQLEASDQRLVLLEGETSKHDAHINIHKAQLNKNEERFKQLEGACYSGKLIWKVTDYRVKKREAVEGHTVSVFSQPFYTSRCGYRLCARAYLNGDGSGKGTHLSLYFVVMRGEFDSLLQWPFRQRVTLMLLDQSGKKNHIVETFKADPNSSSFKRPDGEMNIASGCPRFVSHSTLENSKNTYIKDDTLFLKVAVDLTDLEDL

Tests used:
[1] = target: T1, recombinant Strep-Flag-IL-17 (SF-IL-17), murine (mouse) (UniProt Q62386); test: affinity purification with mass spectrometry; ST2 cells stimulated 15 min with murine SF-IL-17 (500 ng/ml), lysed in 1% DDM; the ligand isolated by consecutive anti-Flag and Strep-Tactin purification; MS with iBAQ; wild-type cells, and TBK1/IKKε DKO, NEMO KO, ACT1 KO and reconstituted TRAF6 KO cells for comparison; only the target purified
T1 sequence: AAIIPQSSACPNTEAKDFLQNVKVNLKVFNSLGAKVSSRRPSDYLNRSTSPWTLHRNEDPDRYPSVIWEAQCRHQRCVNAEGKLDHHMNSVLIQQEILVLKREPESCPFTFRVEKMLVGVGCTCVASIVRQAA

[2] = target: T1, recombinant Strep-Flag-IL-17 (SF-IL-17), murine (mouse); test: as above; remark: listed apart in the source
[3] = target: T1, recombinant Strep-Flag-IL-17 (SF-IL-17), murine (mouse); test: affinity purification with mass spectrometry; control: ST2 cells first solubilised in 1% DDM, 3 μg SF-IL-17 added post-lysis; consecutive anti-Flag and Strep-Tactin purification; MS; only the target purified

binding [1]: no binding
Molecule: TRAF5 (from UniProt P70191 1-558)

binding [2]: binds
B1: IL-17RC (receptor, UniProt Q8K4C2 22-698)
chain: ERLMEPQDTARCSLGLSCHLWDGDVLCLPGSLQSAPGPVLVPTRLQTELVLRCPQKTDCALCVRVVVHLAVHGHWAEPEEAGKSDSELQESRNASLQAQVVLSFQAYPIARCALLEVQVPADLVQPGQSVGSAVFDCFEASLGAEVQIWSYTKPRYQKELNLTQQLPDCRGLEVRDSIQSCWVLPWLNVSTDGDNVLLTLDVSEEQDFSFLLYLRPVPDALKSLWYKNLTGPQNITLNHTDLVPCLCIQVWSLEPDSERVEFCPFREDPGAHRNLWHIARLRVLSPGVWQLDAPCCLPGKVTLCWQAPDQSPCQPLVPPVPQKNATVNEPQDFQLVAGHPNLCVQVSTWEKVQLQACLWADSLGPFKDDMLLVEMKTGLNNTSVCALEPSGCTPLPSMASTRAARLGEELLQDFRSHQCMQLWNDDNMGSLWACPMDKYIHRRWVLVWLACLLLAAALFFFLLLKKDRRKAARGSRTALLLHSADGAGYERLVGALASALSQMPLRVAVDLWSRRELSAHGALAWFHHQRRRILQEGGVVILLFSPAAVAQCQQWLQLQTVEPGPHDALAAWLSCVLPDFLQGRATGRYVGVYFDGLLHPDSVPSPFRVAPLFSLPSQLPAFLDALQGGCSTSAGRPADRVERVTQALRSALDSCTSSSEAPGCCEEWDLGPCTTLE
binding [3]: no binding (only SF-IL-17 added after cell lysis)

Results are given in words; binding and its absence hold for the method and conditions named. Binding seen in cells or lysates may run through a third protein. Here binding means that the protein was enriched with, or labelled near, the bait; the list need not be complete. For part of these data: No binding means not detected with the bait. Tags and fused reporters may be left off the sequences shown. Each block holds one molecule with its values, some of them ahead of it.
